Residue numbers refer to the chain shown, from its start. Results are given in words; binding and its absence hold for the method and conditions named. Some results given as binding are weak or reduced against the parent protein; the word gives no strength.
Columns and labels:
Test in all cases: flow cytometry on cells; yeast surface display (Aga2p); hIL-21R with human Fc-tag at 100 nM, labelled by biotinylated ZZ domain of protein A and streptavidin-PE; expression by anti-c-myc-FITC; only the binder purified
[1] = target: T1, 21d29
T1 sequence: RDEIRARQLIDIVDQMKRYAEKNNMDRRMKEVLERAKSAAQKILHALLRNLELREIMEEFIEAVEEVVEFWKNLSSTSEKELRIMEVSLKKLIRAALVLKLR

By UniProt entry, the sequences of proteins in these tests, tags left out. Residues count along the entry.
UniProt Q9HBE5, residues 20-232: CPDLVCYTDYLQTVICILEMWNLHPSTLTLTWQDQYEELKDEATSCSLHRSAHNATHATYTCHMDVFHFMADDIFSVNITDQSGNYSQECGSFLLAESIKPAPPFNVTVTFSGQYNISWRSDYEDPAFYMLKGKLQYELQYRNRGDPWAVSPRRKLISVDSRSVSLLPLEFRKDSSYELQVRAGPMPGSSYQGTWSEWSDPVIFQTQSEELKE

[2] = target: T2, 21d28
T2 sequence: T1 sequence with Y19V

[3] = target: T3, 21d26
T3 sequence: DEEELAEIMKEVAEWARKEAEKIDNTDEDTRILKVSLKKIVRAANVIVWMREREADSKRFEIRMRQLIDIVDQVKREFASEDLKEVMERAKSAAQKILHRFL

[4] = target: T4, 21d36
T4 sequence: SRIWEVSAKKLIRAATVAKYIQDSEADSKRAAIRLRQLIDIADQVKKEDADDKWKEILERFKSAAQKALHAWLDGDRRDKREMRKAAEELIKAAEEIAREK

Measured: binding

human IL-21R with human Fc-tag (from UniProt Q9HBE5 20-232) (Fc fusion)
binds: all assays above

Reference: article PMC12768534
